According to patent US20160297851A1, “BROAD SPECTRUM […]” (priority 2012, published 2016):
For some assays here: The name of at least one read-out is uncertain. Some results were stated once for a whole list of compounds, not compound by compound. At least one compound was matched to its structure with a doubt left.

What was measured:
[1] = test system: lepB(P84L) P. aeruginosa PAO1; assay type: cell-based, Pseudomonas aeruginosa
[2] = test system: lepB(P84L) E. coli MG1655; assay type: cell-based, Escherichia coli

## CCCCCCCCCCCCCCCC(=O)N(C)[C@H](CO)C(=O)N[C@H](C)C(=O)NCC(=O)N(C)[C@@H]1C(=O)N[C@@H](C)C(=O)N[C@H](C(=O)O)Cc2ccc(O)c(c2)-c2cc1ccc2O [Arylomycin C16, arylomycin C16]
[1]; Sensitive (genetically sensitized) strain
  MIC: 4 µg/mL

## CCCCCCCCCCCCCCCC(=O)N(C)[C@H](CO)C(=O)N[C@H](C)C(=O)NCC(=O)N(C)[C@@H]1C(=O)N[C@@H](CCCC)C(=O)N[C@H](C(=O)O)Cc2ccc(O)c(c2)-c2cc1ccc2O [Compound 29]
[2]
  fold loss of activity relative to arylomycin C16: ≥ 64 fold
[1]
  fold loss of activity relative to arylomycin C16: at least 32 fold

## CCCCCCCCCCCCCCCC(=O)N(C)[C@H](CO)C(=O)N[C@H](C)C(=O)NCC(=O)N(C)[C@@H]1C(=O)N[C@@H](CCCCC)C(=O)N[C@H](C(=O)O)Cc2ccc(O)c(c2)-c2cc1ccc2O [Compound 30]
[2]
  fold loss of activity relative to arylomycin C16: ≥ 64 fold
[1]
  fold loss of activity relative to arylomycin C16: at least 32 fold
